Test results published in patent publication US20210386726A1, “METHOD FOR INHIBITING CORONAVIRUS INFECTION AND REPLICATION” (CHANG GUNG UNIVERSITY, priority 2020, published 2021).
For at least one compound, name, drawing or mass did not settle the structure.

Experiments:
SARS-CoV-2 [1] = assay type: cell-based; conditions: Vero E6 cells; 20 μM pretreatment and in overlay; 100 P.F.U.; 3 d.p.i.; vs control group
SARS-CoV-2 [2] = assay type: cell-based; conditions: LLC-MK2 cells; 20 μM pretreatment 1 hour; m.o.i. 0.01; 1, 2, 3, 4 d.p.i.; vs DMSO control

CN(CCOc1ccc(CC2SC(=O)NC2=O)cc1)c1ccccn1 (stereo not shown) [rosiglitazone, Rosiglitazone]
number of the viral plaques of SARS-CoV-2 (SARS-CoV-2 [1]): reduced
size of the viral plaques of SARS-CoV-2 (SARS-CoV-2 [1]): reduced
RNA expression of E gene of SARS-CoV-2 (SARS-CoV-2 [2]): significant reduction
RNA expression of RdRp gene of SARS-CoV-2 (SARS-CoV-2 [2]): significant reduction
